{"sequences": {"note": "Amino acid sequences for entries named in this document (tags omitted). A change or cut given only in a name is not applied to a line headed by its entry.", "UniProt P02671": "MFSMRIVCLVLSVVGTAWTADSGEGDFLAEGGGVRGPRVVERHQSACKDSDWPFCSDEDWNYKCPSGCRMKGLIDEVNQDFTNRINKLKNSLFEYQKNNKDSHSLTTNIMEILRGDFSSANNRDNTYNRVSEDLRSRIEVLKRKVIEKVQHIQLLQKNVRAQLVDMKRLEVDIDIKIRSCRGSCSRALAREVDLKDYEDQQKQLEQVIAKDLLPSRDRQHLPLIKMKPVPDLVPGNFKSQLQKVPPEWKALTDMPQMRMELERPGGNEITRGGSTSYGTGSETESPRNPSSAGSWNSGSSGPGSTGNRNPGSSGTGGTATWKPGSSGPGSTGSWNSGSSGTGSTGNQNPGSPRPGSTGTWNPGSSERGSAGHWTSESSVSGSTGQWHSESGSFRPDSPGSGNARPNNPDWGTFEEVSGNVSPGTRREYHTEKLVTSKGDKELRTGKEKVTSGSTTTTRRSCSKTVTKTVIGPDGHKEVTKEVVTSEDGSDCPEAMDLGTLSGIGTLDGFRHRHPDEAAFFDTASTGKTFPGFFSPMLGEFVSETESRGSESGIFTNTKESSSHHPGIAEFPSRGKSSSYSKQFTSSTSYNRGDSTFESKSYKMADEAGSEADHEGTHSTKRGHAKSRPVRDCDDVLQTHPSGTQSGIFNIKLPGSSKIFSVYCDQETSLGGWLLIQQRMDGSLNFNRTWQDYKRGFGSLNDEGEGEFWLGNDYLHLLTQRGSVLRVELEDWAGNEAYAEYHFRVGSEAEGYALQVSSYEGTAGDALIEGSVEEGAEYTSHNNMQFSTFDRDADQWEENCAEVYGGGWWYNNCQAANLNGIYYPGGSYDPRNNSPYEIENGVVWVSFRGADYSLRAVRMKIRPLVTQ", "UniProt P02675": "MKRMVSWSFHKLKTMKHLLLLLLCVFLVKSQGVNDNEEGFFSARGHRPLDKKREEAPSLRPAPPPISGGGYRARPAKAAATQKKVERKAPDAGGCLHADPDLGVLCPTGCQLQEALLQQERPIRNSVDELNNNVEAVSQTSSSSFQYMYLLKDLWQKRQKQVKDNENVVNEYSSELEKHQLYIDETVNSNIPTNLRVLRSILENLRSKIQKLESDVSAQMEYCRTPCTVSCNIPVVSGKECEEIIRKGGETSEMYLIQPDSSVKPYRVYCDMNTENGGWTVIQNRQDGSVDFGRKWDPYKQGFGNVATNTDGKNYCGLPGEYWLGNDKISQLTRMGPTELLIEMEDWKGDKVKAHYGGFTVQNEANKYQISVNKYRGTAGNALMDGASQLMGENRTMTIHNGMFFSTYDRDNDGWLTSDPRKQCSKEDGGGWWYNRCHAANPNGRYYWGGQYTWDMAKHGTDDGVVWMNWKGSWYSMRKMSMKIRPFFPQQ", "UniProt P02679": "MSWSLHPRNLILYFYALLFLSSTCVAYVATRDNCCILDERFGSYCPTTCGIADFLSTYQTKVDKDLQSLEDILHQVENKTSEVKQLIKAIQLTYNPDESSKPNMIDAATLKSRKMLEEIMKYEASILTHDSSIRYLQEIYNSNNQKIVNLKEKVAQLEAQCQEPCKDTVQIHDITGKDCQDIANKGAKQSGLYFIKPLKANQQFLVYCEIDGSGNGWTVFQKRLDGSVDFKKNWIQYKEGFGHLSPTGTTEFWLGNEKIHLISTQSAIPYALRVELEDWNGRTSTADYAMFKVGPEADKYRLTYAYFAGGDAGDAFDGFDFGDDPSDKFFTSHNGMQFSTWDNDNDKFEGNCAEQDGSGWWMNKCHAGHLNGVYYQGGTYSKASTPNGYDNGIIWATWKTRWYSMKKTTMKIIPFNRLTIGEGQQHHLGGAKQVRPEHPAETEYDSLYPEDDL"}, "source": "patent EP3344659B1", "binders": {"B1": {"name": "102-10 scFv specific for human fibrin (scFv)", "scFv": "DIQMTQSPSSLSASLGGKVTITCKASQDINKYIAWFQHKPGKGPRLLIHYTSTLQPGIPSRFSGSGSGRDYSFSISNLEPEDLATYYCLQYDNLTWTFGGGTKLEIKRGSTSGSGKPGSGEGSTKGQIQLVQSGPELKKPGETVKISCKASGYTFTNYGMNWVKQAPGKGLKWMGWINTYTGEATYADDFKGRFAFSLETSANTAYVQINNLKNEDTATYFCARLMDYWGQGTSVTVSSGGGGSGGGGSC"}, "B2": {"name": "(reteplase)-(scFv α fibrin) (protein)", "chain": "SYQGNSDCYFGNGSAYRGTHSLTESGASCLPWNSMILIGKVYTAQNPSAQALGLGKHNYCRNPDGDAKPWCHVLKNRRLTWEYCDVPSCSTCGLRQYSQPQFRIKGGLFADIASHPWQAAIFAKHRRSPGERFLCGGILISSCWILSAAHCFQERFPPHHLTVILGRTYRVVPGEEEQKFEVEKYIVHKEFDDDTYDNDIALLQLKSDSSRCAQESSVVRTVCLPPADLQLPDWTECELSGYGKHEALSPFYSERLKEAHVRLYPSSRCTSQHLLNRTVTDNMLCAGDTRSGGPQANLHDACQGDSGGPLVCLNDGRMTLVGIISWGLGCGQKDVPGVYTKVTNYLDWIRDNMRPASGGGGSGGGGSGGGGSDIQMTQSPSSLSASLGGKVTITCKASQDINKYIAWFQHKPGKGPRLLIHYTSTLQPGIPSRFSGSGSGRDYSFSISNLEPEDLATYYCLQYDNLTWTFGGGTKLEIKRGSTSGSGKPGSGEGSTKGQIQLVQSGPELKKPGETVKISCKASGYTFTNYGMNWVKQAPGKGLKWMGWINTYTGEATYADDFKGRFAFSLETSANTAYVQINNLKNEDTATYFCARLMDYWGQGTSVTVSS"}}, "key": {"[1]": {"target": "T1, human fibrin (human) (UniProt P02671+P02675+P02679)", "experiment": "ELISA on thrombin-treated fibrin plate"}, "[2]": {"target": "T1, human fibrin (human)", "experiment": "fibrin-coated plate, wash, then chromogenic plasminogen activation read-out (OD405)"}}, "note": "Results are given in words; binding and its absence hold for the method and conditions named. Some binding calls cover weakened binding; strength is not graded here.", "data": [{"binder": "B1", "values": [{"measurement": "binding", "setting": "[1]", "result": "binds"}]}, {"binder": "B2", "values": [{"measurement": "binding", "setting": "[2]", "result": "binds"}]}]}
